# Primary screen of a compound library

The chains behind the UniProt entries cited, without tags or fusion partners.
UniProt P9WNZ1, whole entry: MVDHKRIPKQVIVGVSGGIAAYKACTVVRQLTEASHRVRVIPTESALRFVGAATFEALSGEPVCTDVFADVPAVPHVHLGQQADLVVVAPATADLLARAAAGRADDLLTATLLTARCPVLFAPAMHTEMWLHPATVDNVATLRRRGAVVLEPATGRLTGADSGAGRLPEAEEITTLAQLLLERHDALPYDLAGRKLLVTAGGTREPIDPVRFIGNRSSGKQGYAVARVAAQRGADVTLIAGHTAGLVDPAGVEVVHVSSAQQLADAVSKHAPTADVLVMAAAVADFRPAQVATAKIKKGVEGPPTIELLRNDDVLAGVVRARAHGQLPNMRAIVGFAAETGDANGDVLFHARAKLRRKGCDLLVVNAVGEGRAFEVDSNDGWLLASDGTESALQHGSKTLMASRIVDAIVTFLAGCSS

Values are the deposited “Percent Effect”, in %.
The record does not define 0% and 100%; most values in the screen are far below 50% and negative numbers occur (in some assays of this library far below -100).
This is an unselected part of the compounds tested.
Two or more numbers in one place are separate tests of the same structure; such repeats can differ widely.
A dash means the value is not listed here; it may have been measured.

Leishmania in macrophages: 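Cell assay of Leishmania donovani living inside macrophages; the read-out is not stated. Tested at 30 µM. The record gives no direction; compounds that gave an IC50 in retests scored well above the rest, so higher reads as stronger inhibition. Size under these conditions: about 69,000 compounds, about 1,000 of them at 50% or above in at least one test.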
CoaBC: 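Coenzyme A biosynthesis protein CoaBC, Mycobacterium tuberculosis (UniProt P9WNZ1). Enzyme assay of CoaBC with a phosphate dye (Biomol Green) read at 650 nm. Tested at 30 µM. Direction is inferred from only a few compounds that gave an IC50; most scored high, so higher reads as stronger inhibition. Most strong results did not repeat in a second test. Of about 67,000 compounds tested this way, about 40 (0.06%) reached 50% or more in at least one test.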

Result for N#CCCN(Cc1cccnc1)C(=O)c1cc(Cl)c[nH]1 was Leishmania in macrophages: 21.2%; CoaBC: -14.96%.
Result for CC(=O)NC[C@H]1C[C@@H]2CCN1C[C@@H]2c1cc(-c2cccs2)nn1C was CoaBC: -20.63%.
Result for CC1CCC(NC(=O)CNC2(c3cccc(Br)c3)CCOCC2)CC1 (stereo not shown) was Leishmania in macrophages: 17.88%; CoaBC: -2.336%.
Result for CC(NC(=O)N1CCC(OCc2ccccc2)CC1)c1nncn1C (stereo not shown) was Leishmania in macrophages: 13.75%; CoaBC: 6.128%.
Result for COCCOC1CCN(C(C(=O)O)c2ccc3c(c2)OCO3)CC1 (stereo not shown) was Leishmania in macrophages: 4.046%; CoaBC: -2.963%.
Result for CC(C(=O)NCc1ccnc(N2CCN(C)CC2)c1)n1cccn1 (stereo not shown) was Leishmania in macrophages: 23.83%; CoaBC: 1.064%.
Result for Cn1nnnc1SC1CCN(c2ccccc2Cl)C1=O (stereo not shown) was Leishmania in macrophages: -5.633%; CoaBC: 0.4464%.
Result for COCC(=O)N1CCC(C)(c2cc(O)[nH]n2)CC1 was Leishmania in macrophages: 5.398%; CoaBC: -0.4854%.
Result for O=C1NC2(CCNCC2)CC1c1ccncc1 (stereo not shown) was CoaBC: 0.3708%.
Result for Cc1noc(CCCC(=O)NC(C)c2ccc(Cl)s2)n1 (stereo not shown) was Leishmania in macrophages: 25.65%; CoaBC: 2.155%.
Result for O=C(Cc1ccsc1)N1CCn2cc(CN3CCCC3)nc2C1 was Leishmania in macrophages: 19.89%; CoaBC: -26.88%.
Result for Cc1ccc2oc(C(=O)N3CCCC(n4nc(C)nc4C)C3)cc2n1 (stereo not shown) was Leishmania in macrophages: 4.232%; CoaBC: 2.105%.
Result for COc1cccc(N2CC3(CCN(Cc4nccn4C)C3)CC2=O)c1 (stereo not shown) was CoaBC: 4.326%.
Result for COCCCn1ccc(NS(=O)(=O)c2cc(F)c(C)cc2F)n1 was Leishmania in macrophages: -15.5% and 15.35%; CoaBC: 2.532%.
Result for c1cncc(COCC2CC[C@H]3[C@H](CCN3CC3CCOCC3)O2)c1 (stereo partly shown) was CoaBC: -1.36%.
Result for CCn1cnnc1CCNC(=O)C(C)(C)c1cccc(Cl)c1 was Leishmania in macrophages: 1.99%; CoaBC: 3.226%.
Result for CCc1ccc2nc(NCCOCCO)cc(C)c2c1 was Leishmania in macrophages: 19.28%; CoaBC: -23.55%.
Result for Cc1ccc2c(n1)N(CC(C)C)CCN(S(C)(=O)=O)C2 was CoaBC: 2.637%.
Result for CCOc1cc(C)nc(N2CCN(C(=O)c3cc[nH]n3)CC2)n1 was Leishmania in macrophages: 19.71%; CoaBC: 4.082%.
Result for CC(C)c1nn(C)c(Cl)c1CNCC(=O)N1CCN(C)CC1 was CoaBC: 5.178%.
Result for COc1ccc(CN2C[C@@H]3[C@H](CC(=O)N4CCCC4)[C@@H]3C2)cc1 was CoaBC: -0.2545%.
Result for O=C(O)C(F)(F)F.[H][C@@]12CCN(c3cccc(F)c3)C[C@@]1([H])O[C@@H](C(=O)NCc1ccco1)C2 was Leishmania in macrophages: 6.37%.
Result for O=C(O)C(F)(F)F.[H][C@]12CCCC(OC)[C@@]1([H])CN(Cc1csc(C)n1)C2 (stereo partly shown) was Leishmania in macrophages: 47.59%.
Result for CC(C)N(Cc1ccc(C(F)(F)F)nc1)Cc1cnn(C)c1 was Leishmania in macrophages: 17.11%; CoaBC: -3.602%.
Result for CN1CCC(c2n[nH]cc2-c2ccnc(N)c2)C1 (stereo not shown) was Leishmania in macrophages: 52.81%; CoaBC: 3.679%.
Result for NC(=O)c1nc(CN2CCOC(C(F)(F)F)C2)no1 (stereo not shown) was Leishmania in macrophages: 3.188%; CoaBC: -3.661%.
Result for CC(=O)N1CCc2nc(N(C)C)nc(NCCc3ccccc3)c2CC1 was Leishmania in macrophages: -4.672%; CoaBC: 1.284%.
Result for CN(C)[C@@H]1CCN(c2ncccn2)[C@H]1Cc1ccncc1.O=C(O)C(F)(F)F.O=C(O)C(F)(F)F was Leishmania in macrophages: 39.63%.
Result for O=C(CCc1cccs1)N1CCCCC1Cn1cccn1 (stereo not shown) was Leishmania in macrophages: 3.523%; CoaBC: -3.333%.

Some entries from above, unchanged:

Compound	Leishmania in macrophages	CoaBC
CC(C(=O)NCc1ccnc(N2CCN(C)CC2)c1)n1cccn1 (stereo not shown)	23.83	1.064
c1cncc(COCC2CC[C@H]3[C@H](CCN3CC3CCOCC3)O2)c1 (stereo partly shown)	-	-1.36
O=C(O)C(F)(F)F.[H][C@@]12CCN(c3cccc(F)c3)C[C@@]1([H])O[C@@H](C(=O)NCc1ccco1)C2	6.37	-

The values are deposited in ChEMBL (CHEMBL3988442, “University of Dundee, Small-Polar-MMV Screening Library” (2021)).